Test results as given in patent US20160060234A1, “CYSTEINE DERIVATIVE” (AJINOMOTO CO., INC., priority 2010, published 2016).
Some compounds share one wording; it may come from a single statement.

Assay: Odor test (sulfur odor, 6 panelists)
Conditions: 70° C.; for odor evaluation at pH 4 (day 4), total points of 6 panelists / odor evaluation at pH 4 (day 6), total points of 6 panelists / odor evaluation at pH 4 (day 6), grade / odor evaluation at pH 4 (day 4), grade: 1 wt % aqueous solution pH 4, sealed; for odor evaluation at pH 4 (day 4), total points of 6 panelists / odor evaluation at pH 4 (day 6), total points of 6 panelists / odor evaluation at pH 7 (day 4), total points of 6 panelists / odor evaluation at pH 7 (day 6), total points of 6 panelists: 3 points = no sulfur odor, 0 = strong
Description: 1 wt % Aqueous solutions (pH 4 or 7) of the cysteine derivatives of Synthetic Examples 10, 33, and 37, CP obtained in Reference Example 1, and CP2Et obtained in Reference Example 2 were prepared, tightly sealed, and preserved in a thermostatic tank at 70° C. for 4 days or 6 days. Each sample was taken out from the thermostatic tank, immediately thereafter smelled for odor by 6 panelists, and evaluated by the following criteria.
3 points: no sulfur odor was detected at all 2 points: slight sulfur odor was detected 1 point: sulfur odor was detected 0 point: strong sulfur odor was detected
The results of the 6 panelists were totaled, and the total points were evaluated as ⊚: not less than 15 points, ◯: not less than 10 points and less than 15 points, Δ: not less than 5 points and less than 10 points, x: not less than 0 point and less than 5 points.

[1] = 1 wt % aqueous solution pH 7, sealed, 4 days
[2] = 1 wt % aqueous solution pH 7, sealed, 6 days

Compound | odor evaluation at pH 4 (day 4), total points of 6 panelists (4 days) [points] | odor evaluation at pH 4 (day 6), total points of 6 panelists (6 days) [points] | odor evaluation at pH 7 (day 4), total points of 6 panelists [1] [points] | odor evaluation at pH 7 (day 6), total points of 6 panelists [2] [points] | odor evaluation at pH 4 (day 6), grade (6 days) | odor evaluation at pH 4 (day 4), grade (4 days) | odor evaluation at pH 7 (day 4), grade [1] | odor evaluation at pH 7 (day 6), grade [2]
CCOC(=O)C1(C)NC(C(=O)O)CS1 (stereo not shown) [CP2Et, 2-methylthiazolidine-2,4-dicarboxylic acid 2-ethyl ester, reference compound] | 3 | 1 | 3 | 1 | – | – | – | –
CC1(C(=O)O)NC(C(=O)O)CS1 (stereo not shown) [CP, 2-methylthiazolidine-2,4-dicarboxylic acid, reference compound] | 6 | 7 | – | – | Δ (not less than 5 points and less than 10 points) | – | – | –
CCOC(=O)C1(C)SCC(C(=O)O)N1C(C)=O (stereo not shown) [Synthetic Example 10, N-acetyl-2-methylthiazolidine-2,4-dicarboxylic acid 2-ethyl ester] | 10 | 8 | 18 | 17 | Δ (not less than 5 points and less than 10 points) | ◯ (not less than 10 points and less than 15 points) | – | –
CCOC(=O)C1SCC(C(=O)O)N1C(C)=O (stereo not shown) [Synthetic Example 33, N-acetylthiazolidine-2,4-dicarboxylic acid 2-ethyl ester] | 16 | 15 | 18 | 17 | – | – | – | –
COC(=O)C1CSC(C(=O)OC)N1C(C)=O (stereo not shown) [Synthetic Example 37, N-acetylthiazolidine-2,4-dicarboxylic acid 2,4-dimethyl ester] | 10 | 9 | 12 | 9 | Δ (not less than 5 points and less than 10 points) | ◯ (not less than 10 points and less than 15 points) | ◯ (not less than 10 points and less than 15 points) | Δ (not less than 5 points and less than 10 points)
